From the supplement of paper PMC4635364
Counter-ions that a name gives are not always drawn. The list shows a part of the results. Single values are uncertain here, since repeats match poorly.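 Cells: ReNCell VM human fetal ventral-midbrain neural progenitors, differentiated mitogen-free. Blinded raters compared doublecortin-stained (early neurons) or tyrosine hydroxylase-stained (dopaminergic neurons) images with untreated wells, where 0 means no change. After repeats and both raters were averaged, compounds scoring 2 or above became hits for retesting.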

System: ReNCell VM
Test: neuronal differentiation score (DCX+ cell fraction vs untreated, manual image score) (score (-3 to 3)); higher = more neuronal differentiation
Conditions: library: LOPAC; 2 uM; 2 weeks

Row | SMILES | neuronal differentiation score
1 | CC(=O)NCCc1ccc(O)c(O)c1 [N-Acetyldopamine monohydrate] | inactive: 0
2 | [N-]=[N+]=Nc1ccc(C(=O)CSC[C@H](NC(=O)CC[C@H](N)C(=O)O)C(=O)NCC(=O)O)cc1 [S-(p-Azidophenacyl)glutathione] | inactive: 0
3 | NCCC[C@](N)(C(=O)O)C(F)F (racemic) [DL-alpha-Difluoromethylornithine hydrochloride] | inactive: 0
4 | CN[C@H](CC(=O)O)C(=O)O [N-Methyl-D-aspartic acid] | inactive: 0

Same assay, conditions: library: Phytochemical; 2 uM; 2 weeks

Row | SMILES | neuronal differentiation score
5 | COc1cc(/C=C/C(=O)N2CCC=CC2=O)cc(OC)c1OC [Piperlongumine] | inactive: 0
6 | C[C@H]1[C@H](C)CC[C@]2(C(=O)O)CC[C@]3(C)C(=CC[C@@H]4[C@@]5(C)CC[C@H](O)C(C)(C)[C@@H]5CC[C@]43C)[C@H]12 [Ursolic acid] | inactive: 0
7 | COc1c2occc2cc2ccc(=O)oc12 [Methoxy-8-psoralen] | inactive: 0

Same assay, conditions: library: Prestwick; 2 uM; 2 weeks

Row | SMILES | neuronal differentiation score
8 | N[C@@H]1CONC1=O [D-cycloserine] | inactive: 0
9 | NC12CC3CC(CC(C3)C1)C2 [Adamantamine fumarate] | inactive: 0
10 | COc1ccc2[nH]c([S+]([O-])Cc3ncc(C)c(OC)c3C)nc2n1 (configuration not stated) [Tenatoprazole] | inactive: 0
11 | CC(C)NC(=N)NC(=N)Nc1ccc(Cl)cc1 [Proguanil hydrochloride] | inactive: 0
12 | COc1cc(NC(C)CCCN)c2ncccc2c1 (configuration not stated) [Primaquine diphosphate] | inactive: 0
13 | Cc1cc(C)nc(NS(=O)(=O)c2ccc(N)cc2)n1 [Sulfamethazine sodium salt] | inactive: 0
14 | CN(C(=O)CN(CCO)CC(=O)N(C)C(C)(C)Cc1ccccc1)C(C)(C)Cc1ccccc1 [Oxethazaine] | inactive: 0
15 | CC(CN(C)C)CN1c2ccccc2Sc2ccccc21 (configuration not stated) [Trimeprazine tartrate] | inactive: 0
16 | Clc1ccc(CSC(Cn2ccnc2)c2ccc(Cl)cc2Cl)cc1 (configuration not stated) [Sulconazole nitrate] | inactive: 0
17 | COC(=O)C1=C(C#N)NC(C)=C(C(=O)OC(C)C)C1c1cccc([N+](=O)[O-])c1 (configuration not stated) [Nilvadipine] | inactive: 0
18 | CC(C)(C)C(=O)OCOC(=O)[C@@H]1N2C(=O)[C@@H](/N=C/N3CCCCCC3)[C@H]2SC1(C)C [Pivmecillinam hydrochloride] | inactive: 0
19 | CC1CCc2cc(F)cc3c(=O)c(C(=O)O)cn1c23 (configuration not stated) [Flumequine] | inactive: 0

Same assay, conditions: library: Spectrum; 2 uM; 2 weeks

Row | SMILES | neuronal differentiation score
20 | Cc1scc2c1N(C(=O)CN1CCN(C)CC1)c1ccccc1NC2=O | inactive: 0
21 | CCCCCCCCCC(=O)N[C@@H](Cc1c[nH]c2ccccc12)C(=O)N[C@@H](CC(N)=O)C(=O)N[C@@H](CC(=O)O)C(=O)N[C@@H]1C(=O)NCC(=O)N[C@@H](CCCN)C(=O)N[C@@H](CC(=O)O)C(=O)N[C@H](C)C(=O)N[C@@H](CC(=O)O)C(=O)NCC(=O)N[C@H](CO)C(=O)N[C@@H]([C@H](C)CC(=O)O)C(=O)N[C@@H](CC(=O)c2ccccc2N)C(=O)O[C@@H]1C [DAPTOMYCIN (5 millimolar/DMSO)] | inactive: 0
22 | COc1cc([C@@H]2c3cc4c(cc3[C@@H](O[C@@H]3O[C@@H]5CO[C@@H](c6cccs6)O[C@H]5[C@H](O)[C@H]3O)[C@H]3COC(=O)[C@H]23)OCO4)cc(OC)c1O | inactive: 0
23 | C[C@H](CS)C(=O)N1CCC[C@H]1C(=O)O | inactive: 0
24 | COc1cccc(OC)c1C(=O)N[C@@H]1C(=O)N2[C@@H]1SC(C)(C)[C@@H]2C(=O)O | active: 3
25 | CC1(C)C[C@@H]2C(=O)CC[C@H]3O[C@]3(C)CC[C@H]21 | inactive: 0
26 | CS(=O)(=O)c1ccc([C@@H](O)[C@@H](CF)NC(=O)C(Cl)Cl)cc1 | inactive: 0
27 | O=C(c1cccnc1)N1CCOCC1 | inactive: 0
28 | O=C1C[C@@H](c2ccc(O)cc2)Oc2cc(O)cc(O)c21 | inactive: 0
29 | C[C@@H]1CC[C@@]23CCC4(C)[C@@](C=CC5[C@@]6(C)CCC(=O)C(C)(C)C6CC[C@]54C)(OC2=O)C3[C@H]1C (some centres not stated) | inactive: 0
30 | COc1c2occc2cc2ccc(=O)oc12 | inactive: 0
31 | COc1cc2c3cc1Oc1cc(ccc1O)C[C@@H]1c4c(cc(OC)c(O)c4Oc4ccc(cc4)C[C@@H]3N(C)CC2)CC[N+]1(C)C | inactive: 0
32 | CC(C(=O)O)c1ccc(-c2ccccc2)c(F)c1 (configuration not stated) | inactive: 0
33 | COc1cnc(NS(=O)(=O)c2ccc(N)cc2)nc1 | inactive: 0
34 | NNCCc1ccccc1 | inactive: 0
35 | C[C@H]1[C@H](C)CC[C@]2(C(=O)O)CC[C@]3(C)C(=CC[C@@H]4[C@@]5(C)C[C@@H](O)[C@H](O)[C@@](C)(CO)[C@@H]5[C@H](O)C[C@]43C)[C@H]12 | inactive: 0
36 | COc1ccc2c(c1)OC/C(=C\c1ccc(OC)c(O)c1)C2=O | inactive: 0
37 | CC1CCc2c(N3CCC(O)CC3)c(F)cc3c(=O)c(C(=O)O)cn1c23 (configuration not stated) | inactive: 0

Looked up one by one from the list above (two):
Row | SMILES | neuronal differentiation score
35 | C[C@H]1[C@H](C)CC[C@]2(C(=O)O)CC[C@]3(C)C(=CC[C@@H]4[C@@]5(C)C[C@@H](O)[C@H](O)[C@@](C)(CO)[C@@H]5[C@H](O)C[C@]43C)[C@H]12 | inactive: 0
23 | C[C@H](CS)C(=O)N1CCC[C@H]1C(=O)O | inactive: 0
